Among the data in PubChem BioAssay AID1347426 (Functional Genomics Laboratory (NCATS/FGL), 2020) are median seed-adjusted z-score values, retold here.

In all, about 31,000 sequences went through this assay and about 1,400 (4.5%) were called active.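 The calls were made as follows: active = median seed-adjusted z-score above 1 or below -1; inactive = the rest.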 This is one part of the list.

The test can be described thus: Novel Modifiers of Survival Motor Neuron (SMN) Protein: Gene Identification via Genome-wide siRNA Screen.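 Also: luminescence tracks full-length SMN protein made from the SMN2 reporter.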 The settings on record: HEK293T SMN2-luciferase reporter, siRNA knockdown, 72 h; actives lie on both sides. The gist of the method: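 Steps: spot 1 pmol siRNA, add Lipofectamine RNAiMax in serum-free DMEM, seed HEK293T SMN2–luciferase reporter cells; incubate 72 h at 37 °C; add ONE-Glo; normalize luminescence to control siRNA, log10, MAD. Candidates: |MAD| > 1.0.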
As to GCCUUACGAUUUCAUAGAATT against ME2, the median seed-adjusted z-score was inactive: -0.0557.

For the sequence GAAUUUGAGAUUGCACUGATT against ZMYND10, the median seed-adjusted z-score was inactive: 0.255.

CCUCCUCUGCUUAUCGUAUTT against GLT8D1: the median seed-adjusted z-score was active: 1.22.

Turning to ACCCUAUGCCUACACCUUUTT against APEX1, the median seed-adjusted z-score is inactive: -0.312.

Turning to GCCUCAUACUUUAUUAUCATT against MCM4, the median seed-adjusted z-score was inactive: 0.0057.

Consider GAAAUACUCUGGUUAGAAATT against PTPRC, for which the median seed-adjusted z-score is inactive: 0.197.

In the case of CCUUUACUACGUGUGCACATT against POLR2I, the median seed-adjusted z-score was active: -3.27.

As to GCUCCUCAACAAUACCGCATT against POT1, the median seed-adjusted z-score is inactive: 0.459.

Consider AGAUGGAGCAAACCGCUUUTT against LYL1, for which the median seed-adjusted z-score is inactive: -0.118.

For GCCUAUCCGUGGAGUAGAATT against PTPRD, the median seed-adjusted z-score was inactive: 0.425.

In the case of CGUUCGGAAUAACUGAAAUTT against GNG7, the median seed-adjusted z-score is inactive: -0.205.

As to CAUUGAUGAUUUCGCUAAATT against SLCO1B1, the median seed-adjusted z-score is inactive: 0.127.

As for GGAGUUCAAUCAGUACCUATT against TTL, the median seed-adjusted z-score was inactive: -0.174.

In the case of CAUUGAACCACGUACCAUUTT against EHHADH, the median seed-adjusted z-score was inactive: 0.0626.

Take CCAACAGUGAGAAGACAAATT against LRRC47: the median seed-adjusted z-score is inactive: 0.00856.

CAAGAGCUCUGAGCAAGGATT against RAX2: the median seed-adjusted z-score is inactive: 0.345.

For CCAAAUGAGUACGAAGAUATT against TNFAIP6, the median seed-adjusted z-score was inactive: 0.

Take CGAUGCUAGUGAUUGCUCUTT against WRN: the median seed-adjusted z-score is inactive: -0.00482.

For GGAUCCAAAUUACAAUCCATT against DERL2, the median seed-adjusted z-score is inactive: -0.27.

On to CGGCAAGAGUGUCCAGUAUTT against RNF5, for which the median seed-adjusted z-score was inactive: -0.0342.

CAAUGUCCGGAAGCAGUUUTT against ACAD8: the median seed-adjusted z-score is active: 1.06.

GAGCGAGAUUUGAAGAUCATT against MYH11: the median seed-adjusted z-score is inactive: 0.

On to GGAAGGUGAUUGUCGGGAUTT against DPAGT1, for which the median seed-adjusted z-score was inactive: -0.144.

For the sequence CUGACUUGUUUGAUCGAAATT against CSNK1G3, the median seed-adjusted z-score was inactive: 0.

In the case of AAGCAUAAUUUGUACAGCUTT against NMNAT1, the median seed-adjusted z-score was inactive: 0.22.

Turning to GACUCUAUGCUGAUAAUGATT against ADIPOQ, the median seed-adjusted z-score was inactive: 0.557.

As for AGGGCCUUAUGGUCAAGAATT against PRKAB2, the median seed-adjusted z-score is inactive: 0.17.

In the case of GGAUCGUAAAAAUAGCAAATT against DGKA, the median seed-adjusted z-score is active: -1.36.

On to CCUUCAGUCUUACUGAACATT against ZNF418, for which the median seed-adjusted z-score is inactive: 0.804.

As to ACACGAGAGAGAAACCUUUTT against ZNF146, the median seed-adjusted z-score was inactive: 0.23.

With GACGUAUUCUAGUACAGAATT against TDG, the median seed-adjusted z-score was inactive: 0.0549.

Consider GCAGGGUGCACAUAUCAUUTT against VNN3, for which the median seed-adjusted z-score was inactive: 0.343.

Turning to AGGCCGUCAUGGAAAUGAUTT against PFDN5, the median seed-adjusted z-score was inactive: 0.562.

For GGAUGUAGGUUUUAGUACATT against KCNJ3, the median seed-adjusted z-score is inactive: -0.0229.

GGUGAACUCUACAACCGGATT against PDCD11: the median seed-adjusted z-score was inactive: -0.335.

For GACCAAGUAUGAGCACGAATT against KRT16, the median seed-adjusted z-score was inactive: -0.233.

Take CGAGAUAACUACUGCCGAUTT against PCOLCE2: the median seed-adjusted z-score is active: -1.15.

Take CCAUUACACCGGCUGCUCUTT against AQP2: the median seed-adjusted z-score is inactive: -0.433.

In the case of GAAUUGACUUUAGAAGAAUTT against GUCA1C, the median seed-adjusted z-score is inactive: -0.617.

For the sequence GAAACACCUCGAGACCAAATT against TXNDC9, the median seed-adjusted z-score is inactive: -0.176.

As for GCAUGGAGGUUGUCUAUGATT against MKRN3, the median seed-adjusted z-score was inactive: 0.402.

Consider CGUACGGGCGCAUCAUUAATT against MINK1, for which the median seed-adjusted z-score was inactive: -0.522.

Turning to GCUUCUAUGUUUAACAUCUTT against ELOVL2, the median seed-adjusted z-score was inactive: -0.456.

Regarding GGAAGAUCAUUGGGCGAUATT against ABCF2, the median seed-adjusted z-score is inactive: 0.0696.

In the case of CACUGAACCAUAUCGAUGATT against DUSP13, the median seed-adjusted z-score is inactive: -0.772.

In the case of ACCUCUACCUGUCCAGCAUTT against GHSR, the median seed-adjusted z-score is inactive: 0.18.

In the case of GAAUGCUCCUUUACCAGAATT against GRB10, the median seed-adjusted z-score was inactive: -0.0341.

For the sequence CCAAGUUAAUGAACGAAGATT against STAM, the median seed-adjusted z-score is inactive: 0.

In the case of AAUGAGGACUGUGAACUGATT against MAPK13, the median seed-adjusted z-score is inactive: -0.491.

Turning to ACUGGAACCUCAAUAUCUATT against TSPAN17, the median seed-adjusted z-score was inactive: -0.0774.

As to GGGUGAUUGGGUUACAGCATT against TRIM6, the median seed-adjusted z-score is inactive: -0.137.

Take AGCCUUCUGUGCUAAAUCATT against ARRB2: the median seed-adjusted z-score is inactive: -0.153.

As for CGACACCAAUCAGAAUUCUTT against DAB2, the median seed-adjusted z-score was inactive: 0.678.

Take CAGUCAUUUUCUAACUGAATT against IL15: the median seed-adjusted z-score was inactive: -0.139.

Take CGCCUGCCCUGAUGACUUUTT against JAG2: the median seed-adjusted z-score was inactive: -0.234.

Consider GGACCUGUAUUGGGAACAATT against ASPHD2, for which the median seed-adjusted z-score was inactive: -0.719.

Regarding CGAACAACCUUUCAAAUCATT against PCDHB10, the median seed-adjusted z-score is inactive: -0.09.

Turning to UCACGUAGAGUCAUAUUUATT against HNRPA1P4, the median seed-adjusted z-score is inactive: -0.906.

Take GCCUUCCUCUGGAUAUCAATT against RBPMS: the median seed-adjusted z-score is inactive: 0.

As to GCGUGUCUUUGAGCGGACATT against PRRX1, the median seed-adjusted z-score was inactive: -0.172.

On to CCAGCAAACUCAACCAACATT against KCNJ6, for which the median seed-adjusted z-score was active: -1.6.

As to CUACCUGUCUUAUUUCAUATT against PI4KA, the median seed-adjusted z-score was inactive: 0.

In the case of AGGCCUUGGUGGAACAUGUTT against PSAP, the median seed-adjusted z-score was inactive: 0.107.

With GUUUCGUGGUUAAUAACCATT against DACH2, the median seed-adjusted z-score is inactive: -0.00102.

With CAAUGAUUGACACCAAUGATT against MBNL1, the median seed-adjusted z-score was inactive: 0.658.

GCAUGCUACUAGCAUCUUUTT against GJA3: the median seed-adjusted z-score is inactive: 0.833.

Consider GGUGUAUUAUUUCUCGAAATT against RPA1, for which the median seed-adjusted z-score is inactive: -0.27.

As for CCCUAUCAAUUUCUAUGGATT against MPP4, the median seed-adjusted z-score was inactive: 0.13.

CAGAAGUCGUAGUCAUGAATT against RBM39: the median seed-adjusted z-score is active: -1.82.

GGACUUAAAACAAUGGUAUTT against PDE3B: the median seed-adjusted z-score is inactive: -0.0475.

Take GCACUCUUGUCAGACUUAATT against PRDX3: the median seed-adjusted z-score is inactive: -0.0659.

As for GCGUCUUCUUCAUCGUGUATT against TPCN1, the median seed-adjusted z-score is inactive: 0.139.

CACUCCAAGCGGAGACAGATT against FOS: the median seed-adjusted z-score is inactive: 0.343.

AGGCCACGCCCUACAACUATT against NDUFA3: the median seed-adjusted z-score is inactive: -0.062.

Turning to GCAAGCUUCUUGGUACAUUTT against DPYD, the median seed-adjusted z-score is inactive: -0.112.

Consider ACAAAGAACAUGAUAACAATT against ZNF100, for which the median seed-adjusted z-score was inactive: -0.209.

Take CAUUUCAGAUGUAAAGAAUTT against ZNF138: the median seed-adjusted z-score is inactive: -0.0937.

For GAGAAAAAUUCCUUAUAUUTT against NTS, the median seed-adjusted z-score is inactive: 0.518.

As to GCCUGGAACCAAGUACAUATT against TNN, the median seed-adjusted z-score was inactive: -0.122.

For the sequence GAGAGAACAUCAUCACCUATT against CDH24, the median seed-adjusted z-score was inactive: 0.31.

As to GUCUGAAUGUCGAAGAGAATT against G3BP1, the median seed-adjusted z-score was inactive: -0.593.

For GAAGUUCACUUACCAAACATT against CNKSR3, the median seed-adjusted z-score is inactive: 0.

On to GAGCGGAUGUUGUCAUGAATT against TMPRSS11D, for which the median seed-adjusted z-score is inactive: -0.0643.

Take CAACUGUCCCGGAGACAAUTT against CTGF: the median seed-adjusted z-score is inactive: -0.181.

With GGACGAGAAUGGGAAGAUUTT against ARD1A, the median seed-adjusted z-score is active: -1.05.

With GUGUAUUGUUUGGAAAGAATT against KLRF1, the median seed-adjusted z-score was inactive: 0.00941.

Consider CACAUAAGCCUGAAAUCAATT against F2, for which the median seed-adjusted z-score is inactive: 0.286.

Turning to GUAUGGAUAUGGAUAUGGATT against RBM3, the median seed-adjusted z-score was inactive: 0.0539.

With AGAACGGAGCUUCAAGUCATT against ZDHHC12, the median seed-adjusted z-score is inactive: -0.0312.

For the sequence GGCUUAUAUCAGUAGCAAUTT against DICER1, the median seed-adjusted z-score is inactive: 0.101.

For AGAUGCCGGUGCAAGUUCATT against FXYD1, the median seed-adjusted z-score is inactive: 0.276.

On to GGACUCUAAUUCCAAAGCUTT against DBX2, for which the median seed-adjusted z-score was inactive: 0.244.

As for GGCAAGCACUGACUAACAATT against CP, the median seed-adjusted z-score is inactive: 0.188.

With CAAAUGGAGAGAUAUCAUATT against PCDHB15, the median seed-adjusted z-score is inactive: 0.0154.

As to CAAUGACCGUAACCCACAATT against TMEM123, the median seed-adjusted z-score is inactive: 0.292.

Regarding UGCUUAUCCUGGUAAAAUATT against CCRL2, the median seed-adjusted z-score is inactive: 0.575.

With GCCUAUAGAGGAUCAGUUATT against PCMTD1, the median seed-adjusted z-score was inactive: 0.0312.

Consider GCAGCUUCAUAACCGAAGATT against PARP1, for which the median seed-adjusted z-score was inactive: -0.0913.

As to CACCCAUCCUUAAUACGAUTT against HOXB13, the median seed-adjusted z-score was inactive: -0.136.

In the case of GGACCAUUCAGGAGGCUGATT against CHP, the median seed-adjusted z-score is inactive: -0.35.

With GGUCCCAGCUUGAAGAGAATT against CSTB, the median seed-adjusted z-score was active: 1.08.

As to GGAGGACGAGAAUAGCUCATT against LRTM2, the median seed-adjusted z-score is inactive: 0.465.

In the case of GGAGAUACUUAGUAAUAGATT against SMARCA5, the median seed-adjusted z-score was inactive: -0.0804.

For the sequence GUUGAUAUCUGGAACAUGATT against DTNB, the median seed-adjusted z-score was inactive: -0.142.

As for GGACCAUCGCUAACGACGATT against GUCA2B, the median seed-adjusted z-score was inactive: -0.146.

On to CCCUUACCAUGGACAUCUATT against TGM1, for which the median seed-adjusted z-score was inactive: -0.286.

Turning to CCAGCAAGUUUUAUGCGAATT against KPNB1, the median seed-adjusted z-score was inactive: 0.165.

Take GGAAAUUAGCUGCAGCUGATT against PPP1R2: the median seed-adjusted z-score is inactive: 0.208.
